The test system of this data set is A549 cells. In words: Co-localization studies with MitoTracker Deep Red and LysoTracker Green in A549 cells. It is filed as cell-based.

Where a SMILES comes first, the peptide text is derived from it. [ ]: non-standard residue; d: D form. The star is where a group is joined. X1 = O=C(c1ccc(-c2cc(-c3ccccn3)nc(-c3ccccn3)c2)cc1)*; Ahx = NCCCCCC(=O)O

Take `N=C(N)NCCC[C@@H](NC(=O)[C@@H](CCCNC(=N)N)NC(=O)[C@@H](CCCNC(=N)N)NC(=O)[C@@H](CCCNC(=N)N)NC(=O)CCCCCNC(=O)c1ccc(-c2cc(-c3ccccn3)nc(-c3ccccn3)c2)cc1)C(N)=O` [[Os-(R4)2]^10+] ({X1-Ahx}-[dR][dR][dR][dR]-NH2): the “Pearson's coefficient, co-localization with MitoTracker Deep Red” value (A549 cells, 30 μM/24 h, MitoTracker Deep Red 100 nM) was found to be 0.56. In addition, the Subcellular distribution result (A549 cells, 30 μM/48 h, co-staining with Lysotracker Green) is recorded as “localization of the conjugate in lysosomal structures”. Besides, the “Pearson's coefficient, co-localization with Lysotracker Green” value (live A549 cells, 30 μM, 48 h, Lysotracker Green 50 nM) is 0.69.

The values above are taken from paper PMC8277133, “Os(II)-Bridged Polyarginine Conjugates: The Additive Effects of Peptides in Promoting or Preventing Permeation in Cells and Multicellular Tumor Spheroids” (Inorganic Chemistry, 2021).
